These results are taken from PMC3488261.

By UniProt entry, the sequences of proteins in these tests, tags left out. Residues count along the entry.
UniProt Q13569, 111-308: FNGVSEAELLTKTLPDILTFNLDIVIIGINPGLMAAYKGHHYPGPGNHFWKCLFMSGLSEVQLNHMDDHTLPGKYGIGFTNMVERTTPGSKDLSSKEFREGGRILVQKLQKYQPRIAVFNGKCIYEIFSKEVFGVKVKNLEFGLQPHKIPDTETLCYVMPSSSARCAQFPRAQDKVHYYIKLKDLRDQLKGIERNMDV

The target of the data set is TDG catalytic domain (pXC1056) (Homo sapiens) (UniProt Q13569). Put plainly: EMSA. As to conditions: 1 uM TDG, 0.5 uM DNA; 5caC at strand 1 position 19; EMSA: 10 mM Tris-HCl pH 8.0, 1 mM EDTA, 0.1% BSA, 37 C 15 min; 10% native PAGE in 1x TBE; recombinant protein; residues 111-308; protein details: His6 removed by thrombin, N-terminal GSHMAS left; label: 5'-FAM strand 1.

For at least one entry, the source does not settle the construct or the ends of the probe. At least one verdict was read from the data and is not stated in words by the source.

With “TCGGATGTTGTGGGTCAGCGCATGATAGTGTA (double strand) [32-bp G:5caC]”, the binding result is “binds”.
